# In the supplement of paper PMC10849652:
# Some of the results follow.
# How the values were obtained:
# Test in all cases: log2 fold change, soluble protein after heating vs DMSO (PISA); higher = thermal stabilisation; K562 cells, 10 uM, 30 min; active = over 0.2 and 3.5 SD of the protein, either way, in both replicates (recomputed)
# crizotinib = compound: C[C@@H](Oc1cc(-c2cnn(C3CCNCC3)c2)cnc1N)c1c(Cl)ccc(F)c1Cl [crizotinib]
# Outline: (§1)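 Soluble protein was quantified by TMTpro 16plex LC-MS/MS after channel sums were equalised. It was obtained as the supernatant after 21,000xg for 90 min from pooled aliquots of K562 cells (2×10^6 cells/mL, 10 μM compound, 30 min) heated for 3 min across 48°C-58°C and extracted in PBS with 0.5% NP-40 at 4°C. Thermal stability values are relative to control samples and come from duplicates. They are given as log2 fold changes.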
# doramapimod = compound: Cc1ccc(-n2nc(C(C)(C)C)cc2NC(=O)Nc2ccc(OCCN3CCOCC3)c3ccccc23)cc1 [doramapimod]
# Outline: as §1
# ispinesib = compound: Cc1ccc(C(=O)N(CCCN)[C@@H](c2nc3cc(Cl)ccc3c(=O)n2Cc2ccccc2)C(C)C)cc1 [ispinesib]
# Outline: as §1
# bafetinib = compound: Cc1ccc(NC(=O)c2ccc(CN3CC[C@H](N(C)C)C3)c(C(F)(F)F)c2)cc1Nc1nccc(-c2cncnc2)n1 [bafetinib]
# Outline: as §1
# [1] = compound: Cn1cc(-c2ccc3nnc(C(F)(F)c4ccc5ncccc5c4)n3n2)cn1
# Outline: as §1
# mubritinib = compound: FC(F)(F)c1ccc(/C=C/c2nc(COc3ccc(CCCCn4ccnn4)cc3)co2)cc1 [mubritinib]
# Outline: as §1
# nilotinib = compound: Cc1cn(-c2cc(NC(=O)c3ccc(C)c(Nc4nccc(-c5cccnc5)n4)c3)cc(C(F)(F)F)c2)cn1 [nilotinib]
# Outline: as §1
# [2] = compound: Cc1nc(Nc2n[nH]c3c2CN(C(=O)N[C@H](CN(C)C)c2ccccc2)C3(C)C)c2sccc2n1
# Outline: as §1
# [3] = compound: Cc1ncc(-c2ccnc(Nc3ccc(S(C)(=O)=O)cc3)n2)n1C(C)C
# Outline: as §1
# gandotinib = compound: Cc1cc(Nc2cc(CN3CCOCC3)c3nc(C)c(Cc4ccc(Cl)cc4F)n3n2)n[nH]1 [gandotinib]
# Outline: as §1
# [4] = compound: Cc1cccc(CC(=O)N2CCc3c2ccc(-c2cn(C)c4ncnc(N)c24)c3F)n1
# Outline: as §1
# [5] = compound: CS(=O)(=O)c1ccc(-c2cnc(N)c(C(=O)Nc3ccccc3)n2)cc1
# Outline: as §1
# [6] = compound: C[C@H](C1=CC=C(C=C1)C(=O)NC2=C3C=CNC3=NC=C2)N
# Outline: as §1
# tozasertib = compound: Cc1cc(Nc2cc(N3CCN(C)CC3)nc(Sc3ccc(NC(=O)C4CC4)cc3)n2)n[nH]1 [tozasertib]
# Outline: as §1
# [7] = compound: Cn1cc(-c2ccc3c(c2)CCN3C(=O)Cc2cccc(C(F)(F)F)c2)c2c(N)ncnc21
# Outline: as §1
# [8] = compound: C[C@@H]1COCCN1C2=NC(=NC(=C2)C3(CC3)S(=O)(=O)C)C4=C5C=CNC5=CC=C4
# Outline: as §1
# tipifarnib = compound: Cn1cncc1[C@@](N)(c1ccc(Cl)cc1)c1ccc2c(c1)c(-c1cccc(Cl)c1)cc(=O)n2C [tipifarnib]
# Outline: as §1
# duvelisib = compound: C[C@H](Nc1ncnc2nc[nH]c12)c1cc2cccc(Cl)c2c(=O)n1-c1ccccc1 [duvelisib]
# Outline: as §1
# [9] = compound: Cc1cc(SCc2sc(-c3ccc(C(F)(F)F)cc3)nc2C)ccc1OCC(=O)O
# Outline: as §1
# dasatinib = compound: Cc1nc(Nc2ncc(C(=O)Nc3c(C)cccc3Cl)s2)cc(N2CCN(CCO)CC2)n1 [dasatinib]
# Outline: as §1
target,measurement,setting,value
PPP2R5C isoform 2 (UniProt Q13362),log2 fold change,crizotinib,inactive: 0.243
same,log2 fold change,doramapimod,inactive: 0.052
same,log2 fold change,ispinesib,inactive: 0.023
same,log2 fold change,bafetinib,inactive: 0.046
same,log2 fold change,[1],inactive: 0.037
same,log2 fold change,mubritinib,inactive: -0.057
PRR4 (UniProt Q16378),log2 fold change,crizotinib,inactive: 0.182
same,log2 fold change,doramapimod,inactive: -0.284
same,log2 fold change,ispinesib,inactive: 0.635
same,log2 fold change,bafetinib,inactive: 0.594
same,log2 fold change,nilotinib,inactive: 0.439
same,log2 fold change,[2],inactive: 0.068
same,log2 fold change,[3],inactive: -0.181
same,log2 fold change,[1],inactive: -0.053
same,log2 fold change,mubritinib,inactive: 0.135
"PPP2R2A, A0A590UJJ1",log2 fold change,gandotinib,inactive: -0.148
same,log2 fold change,[4],inactive: -0.161
PPP1CC (UniProt F8W1A0),log2 fold change,gandotinib,inactive: 0.27
same,log2 fold change,bafetinib,inactive: -0.085
same,log2 fold change,[4],inactive: -0.65
same,log2 fold change,mubritinib,inactive: 0.324
PRC1 (UniProt O43663),log2 fold change,[5],inactive: 0.029
same,log2 fold change,[6],inactive: 0.12
same,log2 fold change,tozasertib,inactive: 0.084
same,log2 fold change,[7],inactive: -0.046
PPP1R13L (UniProt Q8WUF5),log2 fold change,[8],inactive: 0.28
same,log2 fold change,gandotinib,inactive: -0.275
same,log2 fold change,tozasertib,inactive: -0.112
same,log2 fold change,bafetinib,inactive: 0.127
same,log2 fold change,[4],inactive: -0.036
same,log2 fold change,nilotinib,inactive: -0.135
same,log2 fold change,[2],inactive: 0.009
same,log2 fold change,[3],inactive: -0.112
same,log2 fold change,tipifarnib,inactive: -0.083
PPP2R1B (UniProt H0YDG7),log2 fold change,[5],inactive: 0.216
same,log2 fold change,[6],inactive: 0.191
same,log2 fold change,gandotinib,inactive: 0.13
same,log2 fold change,tozasertib,inactive: -0.002
same,log2 fold change,bafetinib,inactive: -0.816
same,log2 fold change,[4],inactive: -0.501
same,log2 fold change,nilotinib,inactive: -0.156
same,log2 fold change,[2],inactive: 0.068
same,log2 fold change,[3],inactive: -0.063
same,log2 fold change,[7],inactive: 0.001
same,log2 fold change,mubritinib,inactive: -0.056
PRNP (UniProt P04156),log2 fold change,[5],inactive: 0.104
same,log2 fold change,gandotinib,inactive: -0.007
same,log2 fold change,bafetinib,inactive: 0.101
same,log2 fold change,[4],inactive: -0.041
same,log2 fold change,mubritinib,inactive: -0.032
PRR16 (UniProt Q569H4),log2 fold change,gandotinib,inactive: -0.025
same,log2 fold change,[4],inactive: 0.13
PRG2 (UniProt P13727),log2 fold change,crizotinib,inactive: 0.036
same,log2 fold change,[8],inactive: 0.212
same,log2 fold change,[6],inactive: -0.023
same,log2 fold change,duvelisib,inactive: 0.086
same,log2 fold change,tozasertib,inactive: 0.007
same,log2 fold change,[9],inactive: 0.016
same,log2 fold change,doramapimod,inactive: 0.091
same,log2 fold change,dasatinib,inactive: 0.009
same,log2 fold change,[7],inactive: -0.119
same,log2 fold change,tipifarnib,inactive: 0.168
same,log2 fold change,mubritinib,inactive: -0.018
PRKX (UniProt P51817),log2 fold change,bafetinib,inactive: -0.039
same,log2 fold change,mubritinib,inactive: 0.108
PPP2R3C (UniProt Q969Q6),log2 fold change,tozasertib,inactive: 0.007
PRKD2 (UniProt M0R346),log2 fold change,[5],inactive: -0.025
same,log2 fold change,[8],inactive: 0.241
same,log2 fold change,gandotinib,inactive: 0.109
same,log2 fold change,bafetinib,inactive: -0.147
same,log2 fold change,[4],inactive: -0.136
PPP1R12C (UniProt Q9BZL4),log2 fold change,[5],inactive: -0.016
same,log2 fold change,[8],inactive: -0.198
same,log2 fold change,gandotinib,inactive: -0.001
same,log2 fold change,[9],inactive: 0.018
same,log2 fold change,ispinesib,inactive: -0.009
same,log2 fold change,bafetinib,inactive: -0.085
same,log2 fold change,[4],active: 0.612
same,log2 fold change,nilotinib,inactive: 0.069
same,log2 fold change,[2],inactive: -0.26
same,log2 fold change,dasatinib,inactive: -0.065
same,log2 fold change,[3],inactive: -0.213
same,log2 fold change,[1],inactive: -0.018
same,log2 fold change,tipifarnib,inactive: -0.219
same,log2 fold change,mubritinib,inactive: -0.118
PPP2R5B (UniProt Q15173),log2 fold change,gandotinib,inactive: -0.277
same,log2 fold change,[9],inactive: -0.002
same,log2 fold change,bafetinib,inactive: 0.006
same,log2 fold change,[4],inactive: -0.057
same,log2 fold change,nilotinib,inactive: -0.187
same,log2 fold change,[2],inactive: 0.095
same,log2 fold change,dasatinib,inactive: -0.047
same,log2 fold change,[3],inactive: -0.042
same,log2 fold change,tipifarnib,inactive: -0.067
same,log2 fold change,mubritinib,inactive: -0.023
PRMT6 (UniProt Q96LA8),log2 fold change,crizotinib,inactive: -0.019
same,log2 fold change,[8],inactive: 0.051
same,log2 fold change,[6],inactive: 0.149
same,log2 fold change,duvelisib,inactive: 0.016
same,log2 fold change,gandotinib,inactive: -0.054
same,log2 fold change,tozasertib,inactive: -0.009
same,log2 fold change,[9],inactive: 0.197
same,log2 fold change,doramapimod,inactive: -0.112
same,log2 fold change,ispinesib,inactive: -0.025
same,log2 fold change,bafetinib,inactive: -0.001
same,log2 fold change,[4],inactive: 0.041
same,log2 fold change,nilotinib,inactive: -0.012
same,log2 fold change,[2],inactive: 0.001
same,log2 fold change,dasatinib,inactive: -0.017
same,log2 fold change,[3],inactive: 0.02
same,log2 fold change,[7],inactive: 0.176
same,log2 fold change,[1],inactive: 0.047
same,log2 fold change,tipifarnib,inactive: -0.098
same,log2 fold change,mubritinib,inactive: 0.105
PROSER3 (UniProt Q2NL68),log2 fold change,[6],inactive: -0.045
same,log2 fold change,duvelisib,inactive: -0.171
same,log2 fold change,tozasertib,inactive: 0.103
same,log2 fold change,[9],inactive: -0.316
same,log2 fold change,bafetinib,inactive: -0.08
same,log2 fold change,nilotinib,inactive: -0.08
same,log2 fold change,[2],inactive: -0.092
same,log2 fold change,dasatinib,inactive: -0.052
same,log2 fold change,[3],inactive: -0.229
same,log2 fold change,[7],inactive: 0.006
same,log2 fold change,tipifarnib,inactive: 0.18

# Retrieved one by one from the list above, 7 records:
target,measurement,setting,value
PPP1R12C (UniProt Q9BZL4),log2 fold change,ispinesib,inactive: -0.009
PRKD2 (UniProt M0R346),log2 fold change,[5],inactive: -0.025
PRR4 (UniProt Q16378),log2 fold change,ispinesib,inactive: 0.635
PROSER3 (UniProt Q2NL68),log2 fold change,[7],inactive: 0.006
"PPP2R2A, A0A590UJJ1",log2 fold change,[4],inactive: -0.161
PPP2R1B (UniProt H0YDG7),log2 fold change,nilotinib,inactive: -0.156
same,log2 fold change,[3],inactive: -0.063
